The exact form of at least one protein or probe is not confirmed. At least one verdict was read from the data and is not stated in words by the source. Tags and fusion partners may be left off the protein sequences shown.
Biological target: T1, GST-SUVR5 zinc finger domain (Arabidopsis thaliana) (UniProt O64827)
T1 sequence (looked up): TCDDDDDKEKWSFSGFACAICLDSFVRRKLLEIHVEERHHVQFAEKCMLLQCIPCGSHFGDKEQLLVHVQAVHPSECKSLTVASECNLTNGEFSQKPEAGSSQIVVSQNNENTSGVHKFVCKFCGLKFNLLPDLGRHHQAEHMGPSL
Assay: EMSA
Details: 100, 250 and 500 ng protein; EMSA: 12% glycerol, 20 mM Tris-HCl pH 7.5, 50 mM KCl, 1 mM MgCl2, 1 mM DTT; temperature not stated; recombinant protein; residues 720-866; protein details: GST (pDEST15)

“GTAGAATACTAGTTGATAAC (double strand) [specific probe JP8489/JP8495]”: binds.

From PMC3469426
